Assay results as given in the supplement of paper PMC12872613.
Where a name gives a salt, the structure may show the parent alone. This is one part of the list. Cut-off read from the data, not from the text of the source: active = 0.7 or more and inactive = the rest. Many values rest on one well or one pass, so single values are uncertain.

test system: MiaPaCa-2 CLSA-25; assay: cell death relative to DMSO vehicle (fraction); higher = more cytotoxic; details: 5 µM; treatment time 48 h; medium cystine 25 µM

Compound	cell death
Nc1ncnc2c1ncn2C1OC(COP(=O)(O)O)C(O)C1O (stereo not given) [Adenosine 5'-monophosphate monohydrate]	inactive: 0.164
COc1ccc(Cl)cc1C(=O)NCCc1ccc(S(=O)(=O)NC(=O)NC2CCCCC2)cc1 [Glyburide]	inactive: 0.0476
O=S(=O)(c1ccccc1)N(CC(F)(F)F)c1ccc(C(O)(C(F)(F)F)C(F)(F)F)cc1	inactive: 0.492
COc1cc(C(C)=O)ccc1O [Acetovanillone]	active: 0.852
OC[C@H]1O[C@@H](n2cnc3c2N=CNC[C@H]3O)C[C@@H]1O [Pentostatin]	inactive: 0.163
C[C@H](CCC(=O)O)[C@H]1CC[C@H]2[C@@H]3CC[C@@H]4C[C@H](O)CC[C@]4(C)[C@H]3C[C@H](O)[C@]12C [Deoxycholic acid]	inactive: 0.0998
C[C@@H](c1ncncc1F)[C@](O)(Cn1cncn1)c1ccc(F)cc1F [Voriconazole]	inactive: 0.0851
NNC(=O)c1ccncc1 [Isoniazid]	inactive: 0.0722
COC(=O)c1cc(OC)c2c(c1-c1c(C(=O)OC)cc(OC)c3c1OCO3)OCO2 [Bifendatatum]	inactive: 0.498
CCc1c(C(=O)C(N)=O)c2c(OCC(=O)O)cccc2n1Cc1ccccc1 [Varespladib]	inactive: 0.199
C[C@]12CC[C@H](O)CC1=CC[C@@H]1[C@@H]2CC[C@]2(C)C(n3cnc4ccccc43)=CC[C@@H]12 [Galeterone]	inactive: 0.283
CC(C)/N=c1\cc2n(-c3ccc(Cl)cc3)c3ccccc3nc-2cc1Nc1ccc(Cl)cc1 [Clofazimine]	inactive: 0.33
CC1(C)CCC2=C(O1)c1ccccc1C(=O)C2=O [Beta-Lapachone]	inactive: 0.539
Cc1ccc([C@@H]2O[C@H](CO)[C@@H](O)[C@H](O)[C@H]2O)cc1Cc1ccc(-c2ccc(F)cc2)s1 [Canagliflozin]	inactive: 0.54
O=C(O)C(S)=Cc1c[nH]c2ccc(F)cc12	inactive: 0.161
CC1(C)CC[C@]2(C(=O)O[C@@H]3O[C@H](CO)[C@@H](O)[C@H](O)[C@H]3O)CC[C@]3(C)C(=CC[C@@H]4[C@@]5(C)CC[C@H](O[C@@H]6O[C@H](C(=O)O)[C@@H](O)[C@H](O)[C@H]6O)C(C)(C)[C@@H]5CC[C@]43C)[C@@H]2C1 [Chikusetsusaponin IVa]	inactive: 0.264
COc1ccc(/C=C/C=C2C(=O)NC(=O)NC2=O)cc1	active: 0.704
CCCCC(=O)O[C@]1(C(=O)CO)[C@@H](C)C[C@H]2[C@@H]3CCC4=CC(=O)C=C[C@]4(C)[C@@]3(F)[C@@H](O)C[C@@]21C [Betamethasone 17-valerate]	inactive: 0.0104
CN(C)c1cccc(-c2c3c(=O)n(-c4ccccc4Cl)[nH]c3cc(=O)n2C)c1	inactive: -0.0329
CC(=O)O[C@]1(C(C)=O)CC[C@H]2[C@@H]3C=C(C)C4=CC(=O)CC[C@]4(C)[C@H]3CC[C@@]21C [Megestrol acetate]	inactive: -0.011
CCN[C@H]1C[C@H](C)S(=O)(=O)c2sc(S(N)(=O)=O)cc21 [Dorzolamide hydrochloride]	inactive: 0.0364
COc1cc(Cc2cnc(N)nc2N)cc(OC)c1OC [Trimethoprim]	inactive: 0.131
N#Cc1c(O)c2c(-c3ccc(-c4ccccc4O)cc3)csc2[nH]c1=O	inactive: 0.212
NS(=O)(=O)Cc1noc2ccccc12 [Zonisamide]	inactive: 0.175
C=C(C)[C@H]1Cc2c(ccc3c2O[C@@H]2COc4cc(OC)c(OC)cc4[C@@H]2C3=O)O1 [Rotenone]	inactive: 0.629
COc1ccc(C2C(C#N)=C(N)OC3=C2C(=O)CC(c2cccc4ccccc24)C3)cc1 (stereo not given)	inactive: 0.0538
O=C(O)c1cc(O)cc(O)c1 [3,5-Dihydroxybenzoic acid]	inactive: 0.48
CCCCCCOC(=O)NC(=N)c1ccc(NCc2nc3cc(C(=O)N(CCC(=O)OCC)c4ccccn4)ccc3n2C)cc1 [Dabigatran etexilate]	inactive: 0.0455
NS(=O)(=O)c1cc2c(cc1Cl)NCNS2(=O)=O [Hydrochlorothiazide]	inactive: 0.227
CC(C)(C)c1ccc(S(=O)(=O)NCc2ccc(C(=O)Nc3cccnc3)cc2)cc1	active: 0.805

A portion of the results above, for reference:
Compound	cell death
Nc1ncnc2c1ncn2C1OC(COP(=O)(O)O)C(O)C1O (stereo not given) [Adenosine 5'-monophosphate monohydrate]	inactive: 0.164
COc1ccc(Cl)cc1C(=O)NCCc1ccc(S(=O)(=O)NC(=O)NC2CCCCC2)cc1 [Glyburide]	inactive: 0.0476
